Data on two molecules can be found in PMC2976706.

No constants are given. Whether binding was seen depends on the method and setting. Binding seen in cells or lysates may run through a third protein. Some binding calls cover weakened binding; strength is not graded here. For part of these data: Where a sequence is shown, tags or fusion partners need not be part of it.

The target of assay [1] is T1, HA-tagged Orc1 (HeLa) (human) (UniProt Q13415).
T1 sequence: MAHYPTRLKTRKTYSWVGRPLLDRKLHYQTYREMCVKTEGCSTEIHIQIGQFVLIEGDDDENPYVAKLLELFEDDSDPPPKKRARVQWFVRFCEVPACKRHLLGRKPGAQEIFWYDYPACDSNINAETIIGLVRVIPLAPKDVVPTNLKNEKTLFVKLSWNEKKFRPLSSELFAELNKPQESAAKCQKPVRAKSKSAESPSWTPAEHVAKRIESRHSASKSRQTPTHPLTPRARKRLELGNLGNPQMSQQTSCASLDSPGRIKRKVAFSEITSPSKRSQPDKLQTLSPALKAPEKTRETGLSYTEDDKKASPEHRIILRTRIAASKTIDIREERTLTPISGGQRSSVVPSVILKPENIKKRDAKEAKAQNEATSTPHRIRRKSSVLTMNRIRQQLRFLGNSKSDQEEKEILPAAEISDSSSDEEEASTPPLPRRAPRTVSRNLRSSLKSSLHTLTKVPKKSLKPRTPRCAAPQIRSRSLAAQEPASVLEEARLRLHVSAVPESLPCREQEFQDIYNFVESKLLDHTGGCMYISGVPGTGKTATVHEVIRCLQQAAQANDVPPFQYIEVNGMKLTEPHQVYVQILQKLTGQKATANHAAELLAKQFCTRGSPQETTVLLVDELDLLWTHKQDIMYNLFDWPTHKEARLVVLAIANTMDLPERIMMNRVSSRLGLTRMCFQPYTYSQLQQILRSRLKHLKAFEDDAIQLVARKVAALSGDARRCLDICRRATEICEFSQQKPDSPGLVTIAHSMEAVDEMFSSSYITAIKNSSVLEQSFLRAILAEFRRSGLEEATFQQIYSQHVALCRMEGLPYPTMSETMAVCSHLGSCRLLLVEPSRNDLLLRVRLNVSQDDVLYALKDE
Put plainly: co-IP; anti-HA immunoprecipitation from HeLa cells transiently transfected with HA-Orc1; western blot for endogenous Rb.

For assay [2], the target named is T2, endogenous Orc1 (HeLa) (human (endogenous in HeLa)) (UniProt Q13415).
T2 sequence: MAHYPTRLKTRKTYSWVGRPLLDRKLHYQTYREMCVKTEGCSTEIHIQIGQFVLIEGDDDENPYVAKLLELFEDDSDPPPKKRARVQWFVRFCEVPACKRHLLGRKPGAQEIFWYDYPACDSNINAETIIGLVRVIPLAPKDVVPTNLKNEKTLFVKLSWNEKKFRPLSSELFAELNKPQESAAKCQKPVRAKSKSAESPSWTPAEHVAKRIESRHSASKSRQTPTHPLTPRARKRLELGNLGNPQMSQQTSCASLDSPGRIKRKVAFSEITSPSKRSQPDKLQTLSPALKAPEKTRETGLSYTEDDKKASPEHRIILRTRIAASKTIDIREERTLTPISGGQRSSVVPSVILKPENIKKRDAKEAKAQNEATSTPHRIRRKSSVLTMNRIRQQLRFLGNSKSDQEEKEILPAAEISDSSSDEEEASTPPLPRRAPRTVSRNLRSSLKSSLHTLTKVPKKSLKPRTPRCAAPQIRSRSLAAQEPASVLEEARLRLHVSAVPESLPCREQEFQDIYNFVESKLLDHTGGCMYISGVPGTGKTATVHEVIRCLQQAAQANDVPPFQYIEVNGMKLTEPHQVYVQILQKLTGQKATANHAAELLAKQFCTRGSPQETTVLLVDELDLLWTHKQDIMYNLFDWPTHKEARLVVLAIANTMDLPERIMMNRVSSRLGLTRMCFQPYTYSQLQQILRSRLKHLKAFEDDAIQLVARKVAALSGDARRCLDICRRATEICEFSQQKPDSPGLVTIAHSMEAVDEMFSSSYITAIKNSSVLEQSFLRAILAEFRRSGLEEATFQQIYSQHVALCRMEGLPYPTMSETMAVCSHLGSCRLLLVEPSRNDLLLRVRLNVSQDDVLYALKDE
The assay is described as follows: co-IP; endogenous proteins, lysates of asynchronous HeLa cells in HNNG buffer (15 mM Hepes pH 7.5, 250 mM NaCl, 1% NP-40, 5% glycerol), antibody overnight at 4 C, protein A/G beads, DNase I treated; western blot. On the technique in general: In western blotting, separated proteins are transferred to a membrane and probed.

Assay [3] addresses T3, wt HA-Orc1 (U2OS) (human) (UniProt Q13415).
T3 sequence: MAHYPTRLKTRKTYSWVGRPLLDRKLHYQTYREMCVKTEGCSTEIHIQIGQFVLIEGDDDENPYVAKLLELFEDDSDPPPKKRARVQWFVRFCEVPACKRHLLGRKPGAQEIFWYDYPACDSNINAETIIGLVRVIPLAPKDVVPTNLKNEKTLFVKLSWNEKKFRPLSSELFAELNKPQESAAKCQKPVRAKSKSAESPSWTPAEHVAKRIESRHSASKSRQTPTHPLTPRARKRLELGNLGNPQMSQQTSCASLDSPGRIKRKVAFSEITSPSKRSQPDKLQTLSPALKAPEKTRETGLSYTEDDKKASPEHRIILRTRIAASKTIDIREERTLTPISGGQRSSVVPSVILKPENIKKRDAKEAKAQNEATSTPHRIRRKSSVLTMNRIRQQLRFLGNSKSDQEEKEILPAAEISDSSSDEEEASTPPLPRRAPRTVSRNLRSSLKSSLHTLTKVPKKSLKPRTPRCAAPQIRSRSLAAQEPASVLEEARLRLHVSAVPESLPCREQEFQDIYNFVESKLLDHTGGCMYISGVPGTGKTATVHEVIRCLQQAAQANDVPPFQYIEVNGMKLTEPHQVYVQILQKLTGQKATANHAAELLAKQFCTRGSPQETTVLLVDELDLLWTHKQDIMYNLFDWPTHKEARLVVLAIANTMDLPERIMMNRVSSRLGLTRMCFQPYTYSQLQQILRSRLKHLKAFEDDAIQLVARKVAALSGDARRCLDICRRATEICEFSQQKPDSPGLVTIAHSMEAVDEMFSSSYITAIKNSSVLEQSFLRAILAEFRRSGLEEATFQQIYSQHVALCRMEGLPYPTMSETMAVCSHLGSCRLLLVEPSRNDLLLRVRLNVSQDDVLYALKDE
The assay is described as follows: co-IP; anti-HA immunoprecipitation from U2OS cells transfected with wt HA-Orc1 or HA-Orc1 LPGRK; western blot for endogenous Rb.

B1: endogenous Rb (HeLa) (protein, UniProt P06400 1-928)
chain: MPPKTPRKTAATAAAAAAEPPAPPPPPPPEEDPEQDSGPEDLPLVRLEFEETEEPDFTALCQKLKIPDHVRERAWLTWEKVSSVDGVLGGYIQKKKELWGICIFIAAVDLDEMSFTFTELQKNIEISVHKFFNLLKEIDTSTKVDNAMSRLLKKYDVLFALFSKLERTCELIYLTQPSSSISTEINSALVLKVSWITFLLAKGEVLQMEDDLVISFQLMLCVLDYFIKLSPPMLLKEPYKTAVIPINGSPRTPRRGQNRSARIAKQLENDTRIIEVLCKEHECNIDEVKNVYFKNFIPFMNSLGLVTSNGLPEVENLSKRYEEIYLKNKDLDARLFLDHDKTLQTDSIDSFETQRTPRKSNLDEEVNVIPPHTPVRTVMNTIQQLMMILNSASDQPSENLISYFNNCTVNPKESILKRVKDIGYIFKEKFAKAVGQGCVEIGSQRYKLGVRLYYRVMESMLKSEEERLSIQNFSKLLNDNIFHMSLLACALEVVMATYSRSTSQNLDSGTDLSFPWILNVLNLKAFDFYKVIESFIKAEGNLTREMIKHLERCEHRIMESLAWLSDSPLFDLIKQSKDREGPTDHLESACPLNLPLQNNHTAADMYLSPVRSPKKKGSTTRVNSTANAETQATSAFQTQKPLKSTSLSLFYKKVYRLAYLRLNTLCERLLSEHPELEHIIWTLFQHTLQNEYELMRDRHLDQIMMCSMYGICKVKNIDLKFKIIVTAYKDLPHAVQETFKRVLIKEEEYDSIIVFYNSVFMQRLKTNILQYASTRPPTLSPIPHIPRSPYKFPSSPLRIPGGNIYISPLKSPYKISEGLPTPTKMTPRSRILVSIGESFGTSEKFQKINQMVCNSDRVLKRSAEGSNPPKPLKKLRFDIEGSDEADGSKHLPGESKFQQKLAEMTSTRTRMQKQKMNDSMDTSNKEEK
With B1, the binding entry in assay [1] and in assay [2] was “binds” each time.

B2: hypo-phosphorylated endogenous Rb (U2OS) (protein, UniProt P06400 1-928)
chain: MPPKTPRKTAATAAAAAAEPPAPPPPPPPEEDPEQDSGPEDLPLVRLEFEETEEPDFTALCQKLKIPDHVRERAWLTWEKVSSVDGVLGGYIQKKKELWGICIFIAAVDLDEMSFTFTELQKNIEISVHKFFNLLKEIDTSTKVDNAMSRLLKKYDVLFALFSKLERTCELIYLTQPSSSISTEINSALVLKVSWITFLLAKGEVLQMEDDLVISFQLMLCVLDYFIKLSPPMLLKEPYKTAVIPINGSPRTPRRGQNRSARIAKQLENDTRIIEVLCKEHECNIDEVKNVYFKNFIPFMNSLGLVTSNGLPEVENLSKRYEEIYLKNKDLDARLFLDHDKTLQTDSIDSFETQRTPRKSNLDEEVNVIPPHTPVRTVMNTIQQLMMILNSASDQPSENLISYFNNCTVNPKESILKRVKDIGYIFKEKFAKAVGQGCVEIGSQRYKLGVRLYYRVMESMLKSEEERLSIQNFSKLLNDNIFHMSLLACALEVVMATYSRSTSQNLDSGTDLSFPWILNVLNLKAFDFYKVIESFIKAEGNLTREMIKHLERCEHRIMESLAWLSDSPLFDLIKQSKDREGPTDHLESACPLNLPLQNNHTAADMYLSPVRSPKKKGSTTRVNSTANAETQATSAFQTQKPLKSTSLSLFYKKVYRLAYLRLNTLCERLLSEHPELEHIIWTLFQHTLQNEYELMRDRHLDQIMMCSMYGICKVKNIDLKFKIIVTAYKDLPHAVQETFKRVLIKEEEYDSIIVFYNSVFMQRLKTNILQYASTRPPTLSPIPHIPRSPYKFPSSPLRIPGGNIYISPLKSPYKISEGLPTPTKMTPRSRILVSIGESFGTSEKFQKINQMVCNSDRVLKRSAEGSNPPKPLKKLRFDIEGSDEADGSKHLPGESKFQQKLAEMTSTRTRMQKQKMNDSMDTSNKEEK
modifications: hypo-phosphorylated form (sites not given)
B2: the binding result in assay [3] is listed as “binds”.
